Here are results for 52 molecules from PubChem BioAssay AID1347431 (National Center for Advancing Translational Sciences (NCATS), 2020).

Molecules are shown by their SMILES. Out of some 1,200 compounds screened, fewer than 10 were called active. Calls follow the shape of the dose curve; as a rule, active = well fitted curve in the direction sought with a large enough effect; inconclusive = small, poorly fitted or top-dose-only effect, or another doubt; inactive = no such curve, though single readings can be large or run the other way. Some of the results follow.

This experiment is described as follows: Confirmatory qHTS assay for inhibitors of Activation Induced Cytidine Deaminase (AID): UDG signals. Also: 0% is about no effect. As to conditions: UDG coupled enzyme activity counter-screen; at 115 µM (top of the series) unless noted. Put shortly:
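Fluorescence at 560 nm excitation/665 nm emission reports UDG activity, read after NaOH quench of a 4 h room-temperature reaction of DJC20/DJC23 substrates with AID (1 uM, 4/3x) and UDG (2 U/mL, 4/3x); compounds at 7.32 nM - 114 uM final, preincubated 10 min.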
Regarding `Cc1ccc(NC(=O)c2c(NC(=O)C(F)(F)F)sc3c2CCCCC3)cc1`, the activity change, negative = inhibition was inactive: 3.35%.
Turning to `CCOc1ccc(-c2nc(SCC(=O)Nc3cc(F)ccc3F)n3[nH]c(=O)cc3n2)cc1`, the activity change, negative = inhibition was inactive: 3.9%.
Under `Cc1ccc(CSc2nc(-c3ccccc3C)nc3c2Cc2c(CO)cnc(C)c2O3)cc1` stands inactive: -0.539%; under `Cc1ccc(C)c(Cn2c(=O)n(CC3CCC(C(=O)N4CCOCC4)CC3)c(=O)c3sccc32)c1` (configuration not stated), inactive: 0.301%.
To `COc1ccc(CN(Cc2ccco2)C(=O)COc2ccc(Cl)cc2C)cc1` belongs inactive: -10.8%.
`Cc1ccccc1Cn1nnc2c(=O)[nH]c(C3CCCN(C(=O)c4ccc(C(C)(C)C)cc4)C3)nc21` (configuration not stated): the activity change, negative = inhibition was inactive: -9.08%.
Under `Cc1c(C(=O)N(C)Cc2ccccc2)sc2nc(-c3ccc(F)cc3)cn12` stands inactive: -10.1%; under `CCOC(=O)c1c(C)oc2nc(C)nc(N(CC(C)C)CC(C)C)c12`, inactive: -17.5%.
Under `C=CCc1c(C)nc2nc(SCC(=O)Nc3cccc(Cl)c3)nn2c1C` stands inactive: 7.28%.
To `CCCN1CCN(c2ncnc3sc(C(=O)Nc4ccc(C(C)C)cc4)c(C)c23)CC1` belongs inactive: -1.46%.
With `Cc1ccc(C)c(N2CCN(C(=O)c3cn(CC(C)C)c(=O)c4c3c3ccccc3n4C)CC2)c1`, the activity change, negative = inhibition was inactive: -15.8%.
To `Cc1ccc(C)c(NC(=O)CSc2nccn2-c2cccc(C)c2C)c1` belongs inactive: -9.11%; to `Cc1nn(-c2nc(-c3ccccc3)cc(C(F)(F)F)n2)c(C)c1Cl`, inactive: -4.92%.
To `CCCCN(C)CC(O)Cn1cc(/C=C/C(=O)c2ccc(Br)cc2)c2ccccc21` (configuration not stated) belongs inactive: -9.1%; to `COc1cccc(-c2cc(C(F)(F)F)nc(NCCc3ccc(OC)c(OC)c3)n2)c1`, inactive: -15.3%.
Under `Cc1ccc(-n2ncc(C(=O)NCc3ccco3)c2C2CCN(C(=O)OC(C)(C)C)CC2)cc1C` stands inactive: -6.41%.
As to `CCN(CC)S(=O)(=O)c1ccc(C(=O)NCCSc2c(-c3ccccc3)[nH]c3ccccc23)cc1`, the activity change, negative = inhibition is inactive: -2.51%.
For `CCc1ccc(Nc2nc3ccccc3nc2NS(=O)(=O)c2ccccc2)cc1`, the activity change, negative = inhibition is inactive: -2.15%.
Turning to `COc1cccc(Cn2cc(C(=O)c3ccc(Cl)cc3)c(=O)c3ccccc32)c1`, the activity change, negative = inhibition was inactive: -5.96%.
As to `Cc1ccc(Cn2c(CCNC(=O)c3cccc(C)c3)nc3ccccc32)cc1`, the activity change, negative = inhibition is inactive: -5.72%.
For the molecule `COc1ccc(-c2nc3sc(CCNC(=O)c4ccc(Br)o4)c(C)n3n2)cc1`, the activity change, negative = inhibition is inactive: 1.19%.
To `CCCN(CCC)CCCNC(=O)c1cc2c(=O)n(C)c3ccccc3c2s1` belongs inactive: -5.67%; to `CCC(C)c1ccc(OCC(=O)Nc2cccc(-c3nc4ncccc4o3)c2)cc1` (configuration not stated), inactive: -3.86%; to `CC(C)(C)OC(=O)N1CCC(c2c(C(=O)NCCN3CCC(Cc4ccccc4)CC3)cnn2-c2cccc(Cl)c2)CC1`, inactive: -8.96%.
To `COc1ccc(C2C=C(c3ccccc3)Nc3nc(NS(=O)(=O)c4ccccc4)nn32)cc1` (configuration not stated) belongs inactive: 9.56%.
For `Cc1ccc(-c2sc(C(=O)Nc3ccc(Br)cc3)cc2CC(=O)O)cc1`, the activity change, negative = inhibition was inactive: 8.68%.
To `CCn1c(=O)c2cc(C(=O)N(CCCOC(C)C)Cc3ccco3)sc2c2ccccc21` belongs inactive: -6.49%.
Under `COc1cccc(CC(=O)Nc2ccc3nc(N4CCC(C)CC4)cc(C)c3c2)c1` stands inactive: -7.49%; under `CCc1nnc2c(N3CCN(c4cccc(C)c4)C(C)C3)nc3ccccc3n12` (configuration not stated), inactive: -8.85%; under `Cc1ccc(C(=O)N(Cc2ccco2)Cc2sccc2C)cc1`, inactive: -1.66%.
Under `COc1ccc(-c2nc3c(c(SCC(=O)Nc4cccc(O)c4)n2)Cc2c(CO)cnc(C)c2O3)cc1` stands inactive: -11.6%.
On to `COc1cc(Cn2c(=O)oc3ccc(C)cc32)ccc1OCCC(C)C`, for which the activity change, negative = inhibition was inactive: 0.453%.
Under `CCC(Sc1nc2c(sc3ccccc32)c(=O)n1CCc1ccc(OC)c(OC)c1)C(=O)N(CC)CC` (configuration not stated) stands inactive: -0.348%; under `Cc1ccc(-c2cn3c(n2)sc2cc(C(=O)NCCCN4CCCCCC4)ccc23)cc1`, inactive: 3.32%; under `CSc1nc(NCCOC(C)=O)c(C#N)c(-c2ccc(C(C)(C)C)cc2)n1`, inactive: -15.1%.
Under `Cc1cc(C)cc(-n2ccnc2SCC(=O)Nc2cccc3ccccc23)c1` stands inactive: -7.88%; under `Cc1nc2cc(-c3ccccc3)nn2c(C)c1CCC(=O)N1CCN(c2ccc(F)cc2)CC1`, inactive: -8.14%; under `Cc1cccc(-n2ccnc2SCC(=O)Nc2cccc3ccccc23)c1`, inactive: -3%.
As to `O=C(Nc1cc(-c2ccccc2)sc1C(=O)O)c1cccc(F)c1`, the activity change, negative = inhibition is inactive: -3.22%.
To `CCn1cc(C(=O)NCCCN2CCC(C)CC2)c(=O)c2cc(S(=O)(=O)N(C)C3CCCCC3)ccc21` belongs inactive: -2.22%; to `Cc1cccc(-c2nc3c(cnn3-c3ccccc3)c(=O)n2-c2cccc(Cl)c2)c1`, inactive: -7.85%; to `CC(C)(C)OC(=O)N1CCC(c2c(C(=O)Nc3ccc4c(c3)OCCO4)cnn2-c2ccc(F)cc2)CC1`, inactive: -12.2%.
Regarding `Cc1ccc2nc(NS(=O)(=O)c3ccc(Cl)cc3)c(Nc3ccc(C(=O)O)cc3)nc2c1`, the activity change, negative = inhibition was inactive: -2.11%.
To `CCC1CCCCN1C(=O)CSc1nc2c([nH]c3ccccc32)c(=O)n1-c1cccc(OC)c1` (configuration not stated) belongs inactive: -3.26%; to `Cc1ccc(Cl)cc1Nc1nn2c(=O)c3ccc(C(=O)NCc4cccs4)cc3nc2s1`, inactive: 2.68%; to `Cc1nc2nc(SCC(=O)NCc3ccccc3)nn2c(C)c1Cc1ccccc1Cl`, inactive: -8.71%.
Regarding `COc1ccc(-c2nc3nc(C)cc(Nc4ccc(C(C)=O)cc4)n3n2)cc1`, the activity change, negative = inhibition is inactive: 2.35%.
To `COc1ccc(-c2cc(C(=O)Oc3ccccc3)c3cc(C)ccc3n2)cc1` belongs inactive: 1.31%.
To `Cc1nc2nc(NC(=O)c3cccc(Cl)c3)[nH]n2c(=O)c1Cc1ccccc1` belongs inactive: -8.15%; to `COc1ccc(-c2nc3c(c(SCC(=O)Nc4ccc(C(=O)O)cc4)n2)Cc2ccccc2O3)cc1`, inactive: 5.87%; to `O=C(c1noc2c1CCCCC2)N1CCN(c2ccc(Cl)cc2)CC1`, inactive: 4.95%.
Under `Cn1c(=O)c2c(-c3ccc(Br)cc3)n(CCc3ccccc3)cc2n(C)c1=O` stands inactive: -1.72%.
